Data from article PMC6379952.
These are yes or no findings as the source states them, for the method shown. In cells and extracts the contact can be indirect. Some results given as binding are weak or reduced against the parent protein; the word gives no strength.

Chains of the proteins cited; added tags and fusions are not shown.
UniProt P84077: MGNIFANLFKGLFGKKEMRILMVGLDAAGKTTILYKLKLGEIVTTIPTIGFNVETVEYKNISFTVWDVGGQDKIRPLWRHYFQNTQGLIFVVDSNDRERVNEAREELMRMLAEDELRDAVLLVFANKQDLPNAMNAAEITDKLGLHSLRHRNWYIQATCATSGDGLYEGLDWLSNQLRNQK

Molecular target: epidermal growth factor receptor (human (endogenous in HN12)) (UniProt P00533)
Test: co-IP; 500 ug HN12 cell lysate in IP lysis buffer (20 mM Tris-HCl pH 8.0, 137 mM NaCl, 2 mM EDTA, 1% Nonidet P-40, protease and phosphatase inhibitors), antibody overnight at 4 C, Protein A/G Sepharose 4 h; preimmune IgG as negative control; also cells treated with 5 uM erlotinib (decreased Arf1 in the EGFR immunocomplex)

- binding: binds
Substance: ADP-ribosylation factor 1 (from UniProt P84077 1-181)
